Assay results as given in patent US20200199202A1.
Results are given in words; binding and its absence hold for the method and conditions named. Binding can be weak; no strength is given.

Target: Colobus guereza NPC1 domain C protein (Colobus guereza)
Experiment: BLI

B1: mAb 548 (anti-human NPC1 domain C monoclonal antibody) (antibody, V domains shown)
VH: EVQLQQSGAELVKPGASVKLSCTASGFNIKDTYMHWVKQRPEEGLEWIGRIDPADGNTEYVPKFQGKATITADTFSNTVYLQLSGLTSEDTAVYYCSRGYYWGQGTTLTVSS
VL: DIQMTQSPASLSASVGETVTITCRASENIYSYLAWYQQKQGKSPQLLVYNAKTLAEGVPSRFSGSGSGTQFSLKINSLQPEDFGIYYCQHHYGSPWAFGGGTKLEIK
Question: How did the binding turn out when B1 was run?
Answer: The binding was “binds”.
